Assay results published in the M2OR odorant receptor database.
This is a selection; strong and weak results do not stand in their true shares. Calls are pooled over several reports, among them a noisy single-well screen. The list shows a part of the results.

Chains of the proteins cited; added tags and fusions are not shown. Lines headed by an entry give the natural chain unless they say otherwise; changes in a name come on top.
UniProt Q8NGP4: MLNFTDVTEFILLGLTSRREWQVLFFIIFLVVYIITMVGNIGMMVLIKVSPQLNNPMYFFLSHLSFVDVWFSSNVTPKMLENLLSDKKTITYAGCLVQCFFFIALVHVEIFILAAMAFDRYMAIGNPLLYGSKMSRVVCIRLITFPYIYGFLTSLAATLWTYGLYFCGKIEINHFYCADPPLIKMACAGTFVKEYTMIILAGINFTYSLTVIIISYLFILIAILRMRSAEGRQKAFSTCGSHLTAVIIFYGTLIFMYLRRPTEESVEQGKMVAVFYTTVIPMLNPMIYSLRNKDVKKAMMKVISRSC

How the values were obtained:
Settings in all cases: stereoisomer not certain
[1] = tested on: T1, OR5M1
T1 sequence (whole entry): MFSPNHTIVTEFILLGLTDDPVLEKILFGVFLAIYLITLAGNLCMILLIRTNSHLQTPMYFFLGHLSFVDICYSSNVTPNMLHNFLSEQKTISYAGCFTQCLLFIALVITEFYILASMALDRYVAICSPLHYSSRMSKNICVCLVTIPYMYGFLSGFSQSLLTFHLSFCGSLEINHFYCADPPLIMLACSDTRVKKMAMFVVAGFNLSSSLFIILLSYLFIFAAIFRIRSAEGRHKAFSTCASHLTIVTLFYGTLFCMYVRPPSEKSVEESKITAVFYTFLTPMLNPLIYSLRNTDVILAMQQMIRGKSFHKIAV
In short: (§1)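 Transient luciferase assays in mammalian cell lines were common, though methods varied by source. The values come from published papers and their supplementary material, with extra details from the original authors when needed. Responsive refers to a measured signal the original authors judged statistically different from baseline, and non-responsive (inactive) to the remainder.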

[2] = molecular target: T2, OR5M8 (Homo sapiens) (UniProt Q8NGP6)
T2 sequence (whole entry): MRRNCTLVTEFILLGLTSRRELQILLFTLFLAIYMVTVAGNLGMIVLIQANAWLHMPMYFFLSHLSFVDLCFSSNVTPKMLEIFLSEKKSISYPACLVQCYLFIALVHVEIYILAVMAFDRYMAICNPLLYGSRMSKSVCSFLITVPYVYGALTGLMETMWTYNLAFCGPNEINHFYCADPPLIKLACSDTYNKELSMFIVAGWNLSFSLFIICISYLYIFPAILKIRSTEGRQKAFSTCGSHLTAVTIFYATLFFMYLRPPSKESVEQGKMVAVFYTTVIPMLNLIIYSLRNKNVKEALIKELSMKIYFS
In short: as §1

[3] = molecular target: T3, OR5M9 (Homo sapiens) (UniProt Q8NGP3)
T3 sequence (whole entry): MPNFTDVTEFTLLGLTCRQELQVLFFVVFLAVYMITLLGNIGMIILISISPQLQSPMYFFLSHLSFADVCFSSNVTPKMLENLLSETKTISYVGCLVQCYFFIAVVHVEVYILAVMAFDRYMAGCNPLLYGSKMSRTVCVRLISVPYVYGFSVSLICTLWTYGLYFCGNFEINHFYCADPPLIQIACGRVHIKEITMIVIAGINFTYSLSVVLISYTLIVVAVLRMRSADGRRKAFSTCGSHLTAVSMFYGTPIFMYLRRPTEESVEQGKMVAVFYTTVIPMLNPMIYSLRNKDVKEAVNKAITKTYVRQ
In short: as §1

[4] = tested on: T4, OR5MA
T4 sequence (whole entry): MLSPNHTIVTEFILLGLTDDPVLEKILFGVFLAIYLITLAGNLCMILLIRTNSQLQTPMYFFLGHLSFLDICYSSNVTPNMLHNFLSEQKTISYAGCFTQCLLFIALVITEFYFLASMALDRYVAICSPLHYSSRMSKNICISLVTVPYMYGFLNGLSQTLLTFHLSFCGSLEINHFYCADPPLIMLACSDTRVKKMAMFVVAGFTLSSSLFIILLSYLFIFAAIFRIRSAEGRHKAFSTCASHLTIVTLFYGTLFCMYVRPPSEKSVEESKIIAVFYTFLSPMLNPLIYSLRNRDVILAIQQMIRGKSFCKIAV
In short: as §1

[5] = molecular target: T5, OR5P2 (Homo sapiens) (UniProt Q8WZ92)
T5 sequence (whole entry): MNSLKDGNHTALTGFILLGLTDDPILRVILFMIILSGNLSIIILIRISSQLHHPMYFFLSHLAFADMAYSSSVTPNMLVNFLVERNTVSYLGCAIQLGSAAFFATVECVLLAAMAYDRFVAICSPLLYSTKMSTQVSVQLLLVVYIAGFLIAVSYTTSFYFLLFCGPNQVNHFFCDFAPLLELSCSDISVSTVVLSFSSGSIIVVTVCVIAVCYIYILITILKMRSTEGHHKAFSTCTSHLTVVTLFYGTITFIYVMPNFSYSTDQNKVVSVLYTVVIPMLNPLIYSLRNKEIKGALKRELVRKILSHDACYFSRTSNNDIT
In short: as §1

[6] = molecular target: T6, OR5P3 (Homo sapiens) (UniProt Q8WZ94)
T6 sequence (whole entry): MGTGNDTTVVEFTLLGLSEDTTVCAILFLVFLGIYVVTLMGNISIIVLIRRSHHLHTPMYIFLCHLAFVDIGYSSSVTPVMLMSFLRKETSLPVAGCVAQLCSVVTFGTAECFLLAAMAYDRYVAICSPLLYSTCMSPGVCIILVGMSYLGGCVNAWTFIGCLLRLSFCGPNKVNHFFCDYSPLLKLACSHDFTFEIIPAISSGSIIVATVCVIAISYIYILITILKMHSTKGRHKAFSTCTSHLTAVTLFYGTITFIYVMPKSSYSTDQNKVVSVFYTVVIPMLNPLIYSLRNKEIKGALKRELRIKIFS
In short: as §1

[7] = tested on: T7, OR5R1
T7 sequence (whole entry): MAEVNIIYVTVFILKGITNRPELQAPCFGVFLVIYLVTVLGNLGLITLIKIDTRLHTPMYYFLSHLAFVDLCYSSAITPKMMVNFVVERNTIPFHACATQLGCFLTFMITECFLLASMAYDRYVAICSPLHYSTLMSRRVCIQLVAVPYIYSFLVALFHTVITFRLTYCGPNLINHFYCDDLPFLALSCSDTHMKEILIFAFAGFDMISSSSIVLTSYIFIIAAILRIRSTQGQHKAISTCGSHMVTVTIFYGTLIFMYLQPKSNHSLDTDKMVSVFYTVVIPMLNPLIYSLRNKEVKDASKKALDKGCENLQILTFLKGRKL
In short: as §1

[8] = molecular target: T8, OR5T1 (Homo sapiens) (UniProt Q8NG75)
T8 sequence (whole entry): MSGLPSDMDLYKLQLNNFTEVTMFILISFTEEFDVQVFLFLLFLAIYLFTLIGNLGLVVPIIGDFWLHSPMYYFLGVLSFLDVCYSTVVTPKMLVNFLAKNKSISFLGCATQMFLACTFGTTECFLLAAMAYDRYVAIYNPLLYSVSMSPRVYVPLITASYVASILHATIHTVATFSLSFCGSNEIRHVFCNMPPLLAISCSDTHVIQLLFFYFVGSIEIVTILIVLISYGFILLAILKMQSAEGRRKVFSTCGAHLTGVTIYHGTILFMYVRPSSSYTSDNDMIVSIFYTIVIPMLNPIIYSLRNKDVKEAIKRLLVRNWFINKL
In short: as §1

[9] = tested on: T9, OR5T1
T9 sequence (whole entry): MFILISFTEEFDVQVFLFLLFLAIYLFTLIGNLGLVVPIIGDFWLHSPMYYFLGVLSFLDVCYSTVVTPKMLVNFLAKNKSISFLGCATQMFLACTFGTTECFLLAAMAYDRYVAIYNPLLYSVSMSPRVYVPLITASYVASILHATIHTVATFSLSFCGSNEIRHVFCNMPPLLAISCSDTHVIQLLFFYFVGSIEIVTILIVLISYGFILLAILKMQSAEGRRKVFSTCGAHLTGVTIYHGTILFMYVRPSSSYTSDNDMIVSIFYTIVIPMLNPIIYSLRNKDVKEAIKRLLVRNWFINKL
In short: as §1

[10] = molecular target: OR5M3 (Homo sapiens) (UniProt Q8NGP4)
In short: as §1

Measured: odorant receptor agonist call;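 note: active if original authors judged signal statistically different from baseline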

CS
inactive: [1] | [2] | [3] | [4] | [5] | [6] | [7] | [8] | [9]

CCC(C)=O
inactive: [1] | [2] | [3] | [4] | [5] | [6] | [7] | [8] | [9]

CCOc1cc(C=O)ccc1O
inactive: [10]

CCCCOC(C)=O
inactive: [1] | [10] | [2] | [3] | [4] | [5] | [6] | [7] | [8] | [9]
